Results deposited as PubChem BioAssay AID1259425 (University of Nebraska Medical Center, 2018)
Shown is a random part of about 14,000 reagents. A reagent listed more than once was tested more than once; the source does not tell the runs apart. Not stated in the record: the time to read-out.

Test: 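Compare each knockdown with KSR1 silencing using changes in marker transcripts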 (primary screen)
System: HCT116 human colon cancer cells
Reagent: siRNA pool against human genes, 50 nM siRNA
Detection: 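mRNA of six signature genes measured together by branched-DNA assay after 50 nM siRNA pool, blank removed, divided by geometric mean of two housekeeping genes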
Direction: BNIP3L mRNA: higher = more BNIP3L transcript after knockdown; NDRG1 mRNA: higher = more NDRG1 transcript after knockdown; BNIP3 mRNA: higher = more BNIP3 transcript after knockdown; ALDOC mRNA: higher = more ALDOC transcript after knockdown; ACSL5 mRNA: higher = more ACSL5 transcript after knockdown

| gene symbol | BNIP3L mRNA, set 1 | NDRG1 mRNA, set 1 | BNIP3 mRNA, set 1 | ALDOC mRNA, set 1 | ACSL5 mRNA, set 1 |
| --- | --- | --- | --- | --- | --- |
| MR1 | 0.103 | 0.152 | 0.325 | 0.014 | 0.109 |
| TAOK2 | 0.061 | 0.0946 | 0.272 | 0.00701 | 0.207 |
| TAOK2 | 0.0512 | 0.125 | 0.187 | 0.0145 | 0.132 |
| TEX35 | 0.202 | 0.407 | 0.304 | 0.0489 | 0.374 |
| CIRSR | 0.0851 | 0.363 | 0.295 | 0.0177 | 0.141 |
| SAA1 | 0.0811 | 0.227 | 0.211 | 0.0226 | 0.13 |
| UBE2V2 | 0.0765 | 0.25 | 0.188 | 0.047 | 0.206 |
| PMS2P1 | 0.211 | 0.745 | 0.264 | 0.0466 | 0.26 |
| NEIL3 | 0.083 | 0.116 | 0.279 | 0.02 | 0.12 |
| BRD2 | 0.159 | 0.242 | 0.28 | 0.00703 | 0.0989 |
| ZNF444 | 0.0506 | 0.149 | 0.459 | 0.0259 | 0.0641 |
| TDG | 0.0325 | 0.185 | 0.333 | 0.0404 | 0.113 |
| CIB2 | 0.122 | 0.273 | 0.478 | 0.0168 | 0.244 |
| CTRB1 | 0.131 | 0.134 | 0.27 | 0.0301 | 0.145 |
| PLPBP | 0.127 | 0.754 | 0.373 | 0.0359 | 0.457 |
| DLK1 | 0.0857 | 0.238 | 0.321 | 0.00946 | 0.162 |
| WDR43 | 0.333 | 0.731 | 0.583 | 0.0257 | 0.487 |
| MAPRE3 | 0.0918 | 0.223 | 0.211 | 0.0392 | 0.0628 |
| SH2B3 | 0.077 | 0.403 | 0.405 | 0.0433 | 0.216 |
| SLC35E2A | 0.146 | 0.11 | 0.241 | 0.0279 | 0.11 |
